Results deposited as PubChem BioAssay AID1224828 (NIAID, 2016).
The whole screen tested about 17,000 reagents; shown is a random part of them. Over the whole deposit, 762 (4.5%) got an active call. 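Active calls include both raised and lowered p65 entry, mostly lowered; wells with fewer than 50 cells lack a z-score.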 Raw values vary from plate to plate and are shown uncorrected.

Test: 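Regulators linking TLR4 signalling to p65 nuclear translocation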 (primary screen)
Cells: mouse RAW264.7 G9 macrophage reporter cells (GFP-p65, Tnf promoter-mCherry)
Knock-down reagent: siRNA pool against mouse genes, 100 nM
Timing: 2 days siRNA transfection, then 40 min LPS before fixation
Conditions: LPS (Salmonella minnesota R595) at 10 ng/ml
Detection: 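Imaged p65 nuclear translocation ratio, normalised to the plate median, converted to robust z-scores and averaged across two replicates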
Direction: p65 translocation robust z-score: higher = more nuclear NF-kappaB p65 after LPS than the plate median; nuclear/cytoplasmic p65 ratio: higher = more nuclear NF-kappaB p65
Rule for the call: 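Active if robust z is above 3.3 (negative regulators) or below -1.56, the Tlr4 control median (positive regulators); activity score 50 or more; control wells not called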
Meaning of the calls: active = hit (p65 shift raised or lowered); inactive = no clear change

The first 6 records as a preview:
gene	p65 translocation robust z-score	nuclear/cytoplasmic p65 ratio, rep 1	nuclear/cytoplasmic p65 ratio, rep 2	low cell count flag	activity call
Havcr2	0.3	1.47	1.41	enough cells to score	inactive
Mrpl55	-1.47	1.51	1.41	enough cells to score	inactive
Paral1	-0.83	1.39	1.78	enough cells to score	inactive
Cyp4f18	0.09	1.57	1.82	enough cells to score	inactive
4930550C14Rik	0.3	1.39	1.34	enough cells to score	inactive
4930579C12Rik	-0.16	1.16	1.37	enough cells to score	inactive

The list itself, from the first entry:
gene	p65 translocation robust z-score	nuclear/cytoplasmic p65 ratio, rep 1	nuclear/cytoplasmic p65 ratio, rep 2	low cell count flag	activity call
Havcr2	0.3	1.47	1.41	enough cells to score	inactive
Mrpl55	-1.47	1.51	1.41	enough cells to score	inactive
Paral1	-0.83	1.39	1.78	enough cells to score	inactive
Cyp4f18	0.09	1.57	1.82	enough cells to score	inactive
4930550C14Rik	0.3	1.39	1.34	enough cells to score	inactive
4930579C12Rik	-0.16	1.16	1.37	enough cells to score	inactive
Nnt	0.94	1.54	1.57	enough cells to score	inactive
Pcsk7	-0.83	1.37	1.28	enough cells to score	inactive
Or6b3	-0.73	1.47	1.35	enough cells to score	inactive
Or10ag52	-1.26	1.43	1.42	enough cells to score	inactive
Rbm15b		1.27	1.29	fewer than 50 cells per well; well left out of scoring	inactive
Tex14	-0.61	1.55	1.34	enough cells to score	inactive
Pah	1.42	1.69	1.55	enough cells to score	inactive
Mitf	0.25	1.38	1.46	enough cells to score	inactive
Gtf3c5	-0.38	1.39	1.32	enough cells to score	inactive
Clec4a3		1.06	1.33	fewer than 50 cells per well; well left out of scoring	inactive
Apol8	-0.65	1.53	1.5	enough cells to score	inactive
Foxn1	1.2	1.61	1.51	enough cells to score	inactive
4933404G15Rik		1.13	1.11	fewer than 50 cells per well; well left out of scoring	inactive
Ugt2a3		1.48	1.28	fewer than 50 cells per well; well left out of scoring	inactive
Ccdc163	-1.9	1.23	1.2	enough cells to score	active
Mrpl4	0.76	1.98	1.64	enough cells to score	inactive
Pxn	0.18	1.44	1.21	enough cells to score	inactive
Tbx15	-0.26	1.31	1.18	enough cells to score	inactive
Phxr2	0.94	1.56	1.36	enough cells to score	inactive
Coq6	0.35	1.62	1.85	enough cells to score	inactive
Abca8a	1.12	1.66	1.97	enough cells to score	inactive
Ido1	-2.19	1.24	1.13	enough cells to score	active
Tcirg1	-1.28	1.39	1.29	enough cells to score	inactive
5730405M06RIK	1.27	1.49	1.67	enough cells to score	inactive
Serp1	0.02	1.55	1.64	enough cells to score	inactive
Zfp282		0	0	fewer than 50 cells per well; well left out of scoring	inactive
H2-Ea	1.32	1.63	1.52	enough cells to score	inactive
Hspb3	-0.79	1.25	1.35	enough cells to score	inactive
Rnmt	-0.47	1.49	1.42	enough cells to score	inactive
Trp53rkb	-0.77	1.47	1.29	enough cells to score	inactive
9630013D21Rik		1.58	1.52	fewer than 50 cells per well; well left out of scoring	inactive
Hapln3	-0.67	1.29	1.46	enough cells to score	inactive
Ube2v1	0.43	1.42	1.3	enough cells to score	inactive
Pcdhga7	-0.32	1.4	1.2	enough cells to score	inactive
Vmn1r185		1.41	1.24	fewer than 50 cells per well; well left out of scoring	inactive
Fbxo6	-0.81	1.41	1.22	enough cells to score	inactive
Cycs	1.17	1.77	1.95	enough cells to score	inactive
Nup93	0.22	1.86	1.46	enough cells to score	inactive
Ophn1	1.32	1.57	1.64	enough cells to score	inactive
Rad51	2.27	1.71	1.96	enough cells to score	inactive
Dnah8	1.51	1.72	1.5	enough cells to score	inactive
Frey1	-0.4	1.31	1.39	enough cells to score	inactive
Mrps14	0.93	1.9	1.76	enough cells to score	inactive
Ube2z	0.23	1.52	1.37	enough cells to score	inactive
Chil4	0.14	1.61	1.81	enough cells to score	inactive
Dnajb2	2.43	1.82	1.65	enough cells to score	inactive
M1ap	-1.59	1.33	1.33	enough cells to score	active
Vegfb	-0.35	1.45	1.46	enough cells to score	inactive
Ckb	0.95	1.82	1.52	enough cells to score	inactive
Vars2	0.64	1.47	1.3	enough cells to score	inactive
Myt1l	-0.06	1.47	1.3	enough cells to score	inactive
Apoc4	-0.97	1.46	1.48	enough cells to score	inactive
F630111L10Rik	-0.97	1.37	1.41	enough cells to score	inactive
